Values quoted from earlier work, collected in patent US20160346356A1, “USE OF RNA INTERFERENCE, FARNESOIC ACID AND RECOMBINANT PROTEIN APPROACH TO INDUCE GONAD MATURATION IN CRUSTACEAN SPECIES” (priority 2013, published 2016).
Some results were stated once for a whole list of compounds, not compound by compound.

System: HaVg1 gene expression
Conditions: hepatopancreas explant; cited from earlier work

CC(C)=CCCC(C)=CCCC(C)=CC(=O)O [FA, farnesoic acid]
time during which stimulatory effect on HaVg1 expression was principally observed: ≤ 90 min
